Mtb cholesterol medium: 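Phenotypic screen: M. tuberculosis growth, cholesterol and DPPC medium, 4 days; the read-out is not stated. Tested at 50 µM. Direction is inferred from retests: higher values go with more growth inhibition. Size under these conditions: about 69,000 compounds, about 370 of them at 50% or above in at least one test.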
Mtb glucose medium: 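Whole-cell growth test on Mycobacterium tuberculosis, read after 3 days in glucose-containing 7H9 medium; the read-out is not stated. Concentration: 50 µM. Direction is inferred from retests: higher values go with more growth inhibition. Size under these conditions: about 69,000 compounds, about 760 of them at 50% or above in at least one test.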

The filed quantity is “Percent Effect” (%).
The controls that fix the scale are not given in the record; negative values are as filed.
Compounds were drawn at random from those tested, without regard to their results.
Two or more numbers in one place are separate tests of the same structure; such repeats can differ widely.

| SMILES | Mtb cholesterol medium | Mtb glucose medium |
|---|---|---|
| `Cc1ccc(CNCC2CCc3nnc(C(C)C)n3C2)s1` (configuration not stated) | 9.226% | -3.987% and 0.2434% |
| `CC(C)(NC(=O)CCc1ccco1)c1ccc2c(c1)OCCO2` | 16.35% | 23.19% |
| `Cl.NCC1CCCCN1C(=O)Cc1cccc(Br)c1` (configuration not stated) | -18.36% | -11.91% |
| `Cc1ccc(-n2ncc3c2CCCC3N)cc1C` (configuration not stated) | 16.65% | 22.83% |
| `Cc1cccc(C)c1OCC(=O)NC(C)c1nnc2n1CCC2` (configuration not stated) | -3.425% | 4.589% |
| `Cc1nn(C)c2nc(-c3ccccn3)nc(NCCC3CCCN3C)c12` (configuration not stated) | 9.941% | -6.917% and -12.25% |
| `CSCC(C)(O)CNc1ncccc1I` (configuration not stated) | -0.8093% | -22.31% |
| `Cc1nc(CN2CCCC(Cn3cc(CCO)nn3)C2)c2ccccn12` (configuration not stated) | -6.219% | -24.01% |
| `COc1ccccc1C(=O)N1CC(=O)N(CC2CC2)CC(O)C1` (configuration not stated) | 6.475% | 23.25% |
| `NC(=O)C1CCCCN1C(=O)c1ccc(Br)s1` (configuration not stated) | -16.95% | 11.07% |
| `CCN(CC(=O)N(C)C)C(=O)C(C)(C)c1ccc2c(c1)OCCO2` | 1.789% | 9.741% |
| `Cc1cc(NCC2CCN(c3ccccc3)C2)n2ncnc2n1` (configuration not stated) | 17.92% | 36.28% |
| `CC(O)CN(C)C(=O)CCNC(=O)OC(C)(C)C` (configuration not stated) | -13.57% | -0.2876% |
| `COCc1cccc(NS(=O)(=O)c2cc(C(=O)O)cs2)c1` | 11.24% | 3.802% |
| `COCC(=O)N1CCc2cccc(S(=O)(=O)N3CCN(C)CC3)c2C1` | -6.254% | -36.42% |
| `CC(=O)N1CCN(C(C)C)CC(COc2ccccc2)C1` (configuration not stated) | 2.147% | 12.01% |
| `CCN(CC)C(=O)NCCc1ccn(-c2ccccc2)n1` | -6.535% | 5.677% |
| `CCN(Cc1cccc(F)c1)Cn1nc(C)c2c(C)onc2c1=O` | -11.91% | -8.288% |
| `Cc1cnn(CC(C)NCc2cccc(C#N)c2)c1` (configuration not stated) | -17.65% and -3.663% | 15.79% |
| `CC1(C)OCC2(CO1)CN(S(=O)(=O)c1ccc(Cl)s1)C2` | 4.196% | 10.96% and 40.41% |
| `O=C(NCCc1ccncc1)c1ccc(S(=O)(=O)NC2CCC2)cc1` | -10.97% | -4.197% |
| `Cc1ccc(CN(CCCn2ccnc2)Cc2ccccc2O)s1.O=C(O)CC(O)(CC(=O)O)C(=O)O` | -27.39% | 2.427% |
| `OC1CCN(c2ccccc2NCc2nc(-c3ccoc3)no2)CC1` | -21.32% | -23.28% |
| `CC(C)c1n[nH]c(C2CN(C(=O)COCC(F)(F)F)CCO2)n1` (configuration not stated) | -6.777% | 9.569% |
| `CC(C)NC(=O)[C@@H]1C[C@@H](N)CN1C(=O)c1cc2c([nH]c1=O)CCCC2` | -17.86% | 1.278% and 1.104% |
| `CC(C)CCc1nc(CNCC2CCCN2c2cccnn2)cs1` (configuration not stated) | -3.038% | 15.77% |
| `COC(=O)c1sccc1NC(=O)C1CCCN1C(=O)c1ccco1` (configuration not stated) | -17.68% | -22.45% and -13.69% |
| `N#CC(NC(=O)CCCOc1cccnc1)c1ccccc1Cl` (configuration not stated) | 19.27% and 26.8% | 32.85% |
| `O=C(Nc1ccncc1)NC1CCN(c2ccccc2Cl)C1=O` (configuration not stated) | 15.89% | 14.66% |
| `O=C(O)C(F)(F)F.[H][C@@]12COC[C@]1([H])[C@@H](OCC1CCOCC1)CN2Cc1ccoc1` | -22% | -45.35% |
| `CCS(=O)(=O)NCC(=O)N1CC2(CCCC2)c2c(F)cccc21` | -1.557% | 12.16% |
| `CCCc1nccn1-c1ccc(C(C)O)cc1` (configuration not stated) | -8.091% | -25.49% |
| `Cc1ccc(CN2CCc3c(C(=O)N(C)C)n[nH]c3C2)o1` | 6.929% | -15.62% |
| `Cn1nc(N2CCCC(C(=O)Nc3nc4ccccc4s3)C2)ccc1=O` (configuration not stated) | 1.79% | 19.29% |
| `Cn1ccc(CNC(=O)N2CCC(C3(C)OCCO3)CC2)c1` | 2.163% | 2.052% and 28.55% |
| `CN(Cc1ccc2c(c1)OCCO2)C(=O)Cn1cccnc1=O` | -16.37% | -1.207% |
| `CC(NC(=O)COc1ccc(Cl)cc1Cl)c1nncn1C(C)C` (configuration not stated) | -17.97% | -0.8734% and 3.749% |
| `COc1cccc(CNc2nnc(C(C)(C)C)o2)c1OC` | -11.77% | 1.973% |
| `CCOc1ccc(NC(=O)Nc2cnc(N3CCOCC3)nc2)cc1` | 17.06% | 22.38% |
| `O=C(C1CCCOC1)N1CCc2ccc(F)cc21` (configuration not stated) | -1.936% | 4.655% and -19.24% |
| `CC(C)(C)c1cn2nc(N3CCCC3Cn3cccn3)sc2n1` (configuration not stated) | 4.571% | 2.932% |

Some entries from above, unchanged:

| SMILES | Mtb cholesterol medium | Mtb glucose medium |
|---|---|---|
| `N#CC(NC(=O)CCCOc1cccnc1)c1ccccc1Cl` (configuration not stated) | 19.27% and 26.8% | 32.85% |
| `Cc1nc(CN2CCCC(Cn3cc(CCO)nn3)C2)c2ccccn12` (configuration not stated) | -6.219% | -24.01% |
| `NC(=O)C1CCCCN1C(=O)c1ccc(Br)s1` (configuration not stated) | -16.95% | 11.07% |
| `CC(C)(C)c1cn2nc(N3CCCC3Cn3cccn3)sc2n1` (configuration not stated) | 4.571% | 2.932% |
| `CC(C)c1n[nH]c(C2CN(C(=O)COCC(F)(F)F)CCO2)n1` (configuration not stated) | -6.777% | 9.569% |

Measurements from “University of Dundee, Small-Polar-MMV Screening Library” (2021), ChEMBL document CHEMBL3988442.